No constants are given. Whether binding was seen depends on the method and setting. In cells and extracts the contact can be indirect. Here binding means that the protein was enriched with, or labelled near, the bait; the list need not be complete. Where a sequence is shown, tags or fusion partners need not be part of it.
T1: GS-tagged TIFY8 (TIFY8-GS) (Arabidopsis thaliana) (UniProt Q84MB2)
T1 sequence: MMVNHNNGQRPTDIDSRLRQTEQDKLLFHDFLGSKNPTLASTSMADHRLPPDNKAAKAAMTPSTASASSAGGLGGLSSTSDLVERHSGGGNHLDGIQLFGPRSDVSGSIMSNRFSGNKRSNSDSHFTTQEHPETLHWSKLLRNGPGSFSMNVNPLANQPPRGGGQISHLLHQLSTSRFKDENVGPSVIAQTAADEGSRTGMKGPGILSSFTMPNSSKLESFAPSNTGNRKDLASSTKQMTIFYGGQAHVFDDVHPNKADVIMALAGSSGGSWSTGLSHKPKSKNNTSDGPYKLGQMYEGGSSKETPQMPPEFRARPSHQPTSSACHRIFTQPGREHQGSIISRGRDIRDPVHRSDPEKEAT

Protein sequences, listed by entry. Tags and fused reporters are not part of them. Lines headed by an entry give the natural chain unless they say otherwise; changes in a name come on top.
UniProt Q07100: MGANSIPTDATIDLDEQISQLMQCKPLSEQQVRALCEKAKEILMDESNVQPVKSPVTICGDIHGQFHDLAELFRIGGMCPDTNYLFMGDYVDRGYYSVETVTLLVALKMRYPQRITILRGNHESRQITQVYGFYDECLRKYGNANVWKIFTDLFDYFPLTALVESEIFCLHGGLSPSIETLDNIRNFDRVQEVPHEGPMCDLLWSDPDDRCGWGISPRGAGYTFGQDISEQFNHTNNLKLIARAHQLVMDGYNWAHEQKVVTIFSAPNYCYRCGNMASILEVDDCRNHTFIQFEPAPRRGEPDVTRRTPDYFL
UniProt Q8GY55: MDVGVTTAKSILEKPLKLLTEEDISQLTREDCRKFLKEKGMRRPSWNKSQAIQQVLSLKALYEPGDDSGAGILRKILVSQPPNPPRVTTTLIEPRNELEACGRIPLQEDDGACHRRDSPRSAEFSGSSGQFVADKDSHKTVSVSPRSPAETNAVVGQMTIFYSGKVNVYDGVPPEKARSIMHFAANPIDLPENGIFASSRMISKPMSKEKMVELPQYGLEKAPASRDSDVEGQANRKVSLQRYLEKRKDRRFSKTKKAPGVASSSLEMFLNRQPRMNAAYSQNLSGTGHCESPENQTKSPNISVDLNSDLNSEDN
UniProt Q0WNJ6: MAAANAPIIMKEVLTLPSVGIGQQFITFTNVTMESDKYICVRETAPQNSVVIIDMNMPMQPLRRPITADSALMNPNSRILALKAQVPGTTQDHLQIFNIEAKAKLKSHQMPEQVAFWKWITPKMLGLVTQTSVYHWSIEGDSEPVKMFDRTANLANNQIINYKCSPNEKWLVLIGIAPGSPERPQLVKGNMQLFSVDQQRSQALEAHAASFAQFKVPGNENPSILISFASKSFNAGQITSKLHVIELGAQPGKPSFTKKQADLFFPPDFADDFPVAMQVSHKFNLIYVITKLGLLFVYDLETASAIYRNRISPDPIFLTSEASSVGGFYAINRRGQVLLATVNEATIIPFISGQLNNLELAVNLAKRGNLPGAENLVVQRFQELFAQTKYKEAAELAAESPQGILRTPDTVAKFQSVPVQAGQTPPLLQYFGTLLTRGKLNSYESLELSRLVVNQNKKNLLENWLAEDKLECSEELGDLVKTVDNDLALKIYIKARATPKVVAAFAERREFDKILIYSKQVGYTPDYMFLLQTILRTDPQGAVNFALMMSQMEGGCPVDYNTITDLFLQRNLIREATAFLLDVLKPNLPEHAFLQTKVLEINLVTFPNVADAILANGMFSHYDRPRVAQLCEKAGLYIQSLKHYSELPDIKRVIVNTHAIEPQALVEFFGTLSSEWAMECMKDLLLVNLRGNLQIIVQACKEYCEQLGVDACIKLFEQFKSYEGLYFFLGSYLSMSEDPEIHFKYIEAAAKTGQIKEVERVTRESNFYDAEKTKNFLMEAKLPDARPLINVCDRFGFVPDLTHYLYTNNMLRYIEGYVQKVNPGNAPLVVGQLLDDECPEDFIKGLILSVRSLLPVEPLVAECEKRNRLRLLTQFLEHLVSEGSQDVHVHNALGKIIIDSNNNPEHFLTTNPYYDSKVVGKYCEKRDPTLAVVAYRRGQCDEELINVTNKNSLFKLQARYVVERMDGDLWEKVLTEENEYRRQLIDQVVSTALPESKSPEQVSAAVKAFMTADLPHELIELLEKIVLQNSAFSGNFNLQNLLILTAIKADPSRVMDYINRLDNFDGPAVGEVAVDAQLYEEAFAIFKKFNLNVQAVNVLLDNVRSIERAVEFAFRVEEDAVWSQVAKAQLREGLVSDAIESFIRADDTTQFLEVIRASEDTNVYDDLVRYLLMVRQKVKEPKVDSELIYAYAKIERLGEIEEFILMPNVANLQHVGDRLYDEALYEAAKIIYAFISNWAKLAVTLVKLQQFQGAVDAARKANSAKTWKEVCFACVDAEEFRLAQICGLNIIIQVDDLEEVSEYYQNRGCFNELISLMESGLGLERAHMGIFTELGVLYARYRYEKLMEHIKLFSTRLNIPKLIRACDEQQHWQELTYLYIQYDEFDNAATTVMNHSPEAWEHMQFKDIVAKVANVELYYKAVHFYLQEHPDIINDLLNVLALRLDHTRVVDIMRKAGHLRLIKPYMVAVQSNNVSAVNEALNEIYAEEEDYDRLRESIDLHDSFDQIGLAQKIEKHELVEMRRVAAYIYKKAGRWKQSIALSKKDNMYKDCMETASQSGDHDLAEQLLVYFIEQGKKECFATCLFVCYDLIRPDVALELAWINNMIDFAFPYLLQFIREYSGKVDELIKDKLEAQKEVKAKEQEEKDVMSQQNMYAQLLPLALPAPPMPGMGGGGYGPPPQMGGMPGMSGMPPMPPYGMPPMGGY
UniProt Q9SV55: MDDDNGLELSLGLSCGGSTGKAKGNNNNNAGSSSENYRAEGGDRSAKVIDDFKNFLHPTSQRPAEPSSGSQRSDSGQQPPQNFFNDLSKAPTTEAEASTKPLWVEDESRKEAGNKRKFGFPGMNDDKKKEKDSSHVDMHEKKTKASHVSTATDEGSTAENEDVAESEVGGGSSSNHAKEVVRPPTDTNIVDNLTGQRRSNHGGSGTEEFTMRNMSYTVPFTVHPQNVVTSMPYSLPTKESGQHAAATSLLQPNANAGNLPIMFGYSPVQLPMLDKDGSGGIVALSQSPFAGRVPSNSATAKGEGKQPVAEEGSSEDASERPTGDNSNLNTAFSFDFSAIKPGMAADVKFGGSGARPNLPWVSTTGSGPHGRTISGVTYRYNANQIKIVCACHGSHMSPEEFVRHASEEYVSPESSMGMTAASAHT

B1: SPINDLY (SPY) (enzyme, UniProt Q96301 1-914)
chain: MVGLEDDTERERSPVVENGFSNGSRSSSSSAGVLSPSRKVTQGNDTLSYANILRARNKFADALALYEAMLEKDSKNVEAHIGKGICLQTQNKGNLAFDCFSEAIRLDPHNACALTHCGILHKEEGRLVEAAESYQKALMADASYKPAAECLAIVLTDLGTSLKLAGNTQEGIQKYYEALKIDPHYAPAYYNLGVVYSEMMQYDNALSCYEKAALERPMYAEAYCNMGVIYKNRGDLEMAITCYERCLAVSPNFEIAKNNMAIALTDLGTKVKLEGDVTQGVAYYKKALYYNWHYADAMYNLGVAYGEMLKFDMAIVFYELAFHFNPHCAEACNNLGVLYKDRDNLDKAVECYQMALSIKPNFAQSLNNLGVVYTVQGKMDAAASMIEKAILANPTYAEAFNNLGVLYRDAGNITMAIDAYEECLKIDPDSRNAGQNRLLAMNYINEGLDDKLFEAHRDWGWRFTRLHPQYTSWDNLKDPERPITIGYISPDFFTHSVSYFIEAPLTHHDYTKYKVVVYSAVVKADAKTYRFRDKVLKKGGVWKDIYGIDEKKIASMVREDKIDILVELTGHTANNKLGTMACRPAPVQVTWIGYPNTTGLPTVDYRITDSLADPPDTKQKQVEELVRLPDCFLCYTPSPEAGPVCPTPALSNGFVTFGSFNNLAKITPKVLQVWARILCAVPNSRLVVKCKPFCCDSIRQRFLTTLEQLGLESKRVDLLPLILFNHDHMQAYSLMDISLDTFPYAGTTTTCESLYMGVPCVTMAGSVHAHNVGVSLLTKVGLGHLVAKNEDEYVQLSVDLASDVTALSKLRMSLRDLMAGSPVCNGPSFAVGLESAYRNMWKKYCKGEVPSLRRMEMLQKEVHDDPLISKDLGPSRVSVTGEATPSLKANGSAPVPSSLPTQSPQLSKRMDSTS
B2: ATB alpha (protein, UniProt Q38821 1-513)
chain: MNGGDEVVAASADPSLPLEWRFSQVFGERSAGEEVQEVDIISAIEFDNSGNHLATGDRGGRVVLFERTDTNNSSGTRRELEEADYPLRHPEFRYKTEFQSHDPEFDYLKSLEIEEKINKIRWCQTANGALFLLSTNDKTIKFWKVQDKKIKKICDMNSDPSRTVGNGTVASSSNSNITNSCLVNGGVSEVNNSLCNDFSLPAGGISSLRLPVVVTSHESSPVARCRRVYAHAHDYHINSISNNSDGETFISADDLRINLWNLEISNQSFNIVDVKPAKMEDLSEVITSAEFHPTHCNMLAYSSSKGSIRLIDLRQSALCDSHSKLFEEPEQAGPKSFFTEIIASVSDIKFAKEGRYLLSRDYMTLKLWDINMDAGPVATFQVHEYLKPKLCDLYENDSIFDKFECCISGNGLRAATGSYSNLFRVFGVAPGSTETATLEASRNPMRRHVPIPSRPSRALSSITRVVSRGSESPGVDGNTNALDYTTKLLHLAWHPNENSIACAAANSLYMYYA
B3: OBERON2 (OBE2) (protein, UniProt Q9LUB7 1-574)
chain: MGTSSGSNHPHQMLPPRQQQRSGGGLETALSLVSSDQEPRRESPAESASSQETWPLGDTVAGKKSMSQKTEPDSMEQTVNVMHHVSNADKVSVRDIARERVELVAERMHRLPDEFLDELKNGLKSILEGNVAQSVDEFMFLQKVVQSRTDLSSVTLVRAHRVQLEILVAINTGIQAFLHPNISLSQPSLIEIFVYKRCRNIACQNQLPADDCYCDICTNRKGFCNLCMCTICNKFDFSVNTCRWIGCDLCSHWTHTDCAIRDGQITTGSSAKNNTSGPGEIVFKCRACNRTSELLGWVKDVFQHCAPNWDRESLMKELDFVSRIFRGSEDQRGRKLFWKCEELIDKIKGGLAEATAAKLILMFFQEIESDSAKSFENGEGGRLMAPQDACNRIAEVVQETLRKMEIVAEEKMRMFKKARMALETCDRELEDKAKEVSELKAERQKKKLQIDELERIVRLKQAEADMFQLKANEAKREADRLQRIVLAKMDKSEEEYASNYLKQRLSEAEAEKQYLFEKIKLQENSRVASQSSGGGGDPSQVMMYSKIRDLLQGYNLSPKVDPQLNERNPFRSNP
B4: TITANIA2 (TTA2) (protein, UniProt Q84TI3 1-1162)
chain: MKRLRSSDDLDFCNDKNVDGEPPNSDRPASSSHRGFFSGNNRDRGEDAAGFSRAFSRRRSNRDLDNHRPDARYHRSESACFSRRAFPKGFRSERERPNRDASVSSWRRFGGPGNDFGVDDRDRRLRDAERDRSLKSPSWSRDSPNELSKFKPLDSRNSRSRSKSLASPTWSKDSGSEQSKSVGNVVKKSEEEVQGKSSTTSSEMEEGELEPEPQPETASGLAHQTKHDCKLPSCSADDHKNARIDRSFQEIGKSAQLDANTESNRELSHVGGNREMETTDSMTDKKSVEDAENVPEHATESMHVSQNNVNDTSTALAIEHDHRDGTITASANKITDTVDEKGDKDEDYKENLHGVKLEETLYPDVPERLEELKEVKGNDGDANKAEVEGPECVEENALANRTPAEYISSVSDSSVHKCKDKGKNSDVPLTHLVGNALFSESKTEDLHDKDKDEKDDNFGGPSIRGFELFSSSPVRRAKKTEQSGVNKHKDEKLLLEPLDLSLSLPDVLLPIGGQDTNQLGSPVRSGSVRSLTDTFCTNSDGFTMSMSFSGSRSFNHNPSCSLSHNIGDNEQSVHSRPIFQGIDWQALSHNDSKYNENTVYQRLMENGNGSVQPRAMKGNLISGQADEEHLRLPDGSSKAANILEKQLSFQKSVDVRSACPRTGSLENGSKFTVEKKTAKDFYSGSNSWITGLEAGGHDFVETVIRYILSDSMPVMTKRFHEMPTRNITSLKENIRQMMLNMDKNVQLGAFQDALQNRTDITLELLTKSHRAQLEILVALKSGRSDFLLLDNSISSSHLAEIFMNMRCKNLSCRVLLPVDECDCRVCSRKDGFCSACMCLVCSNFDMASNTCSWVGCDVCLHWCHTDCGIKESYIRNGINASGAPGMTEMQFHCVACNHPSEMFGFVKEVFLNFAREWKFERFCKELEYVNKIFSSSKDSRGKQLRQAADAMLASLKSKLIGLPEACNRILGFISDCDSSTPAETSAPFIYEQPKPRHERGSPSQDTAWLRSVCSDNPHNQLKRSASVADAFHRERQVEICAVEMELERGSPKEPRFEELESIVRMKQAEAEMFQGRADDARREAEGLKRIAIAKKEKIEEEYNRRMGKLSMEDAQERRRRRYEELEAMQRGQREFYEMKMRMEEEMRGLLTKMEMTKQSLAL
B5: PROTEIN PHOSPHATASE2A PP2A-4 (AT3G25800) (protein, UniProt Q38950 1-587)
chain: MSMIDEPLYPIAVLIDELKNDDIQLRLNSIRRLSTIARALGEERTRKELIPFLSENNDDDDEVLLAMAEELGVFIPYVGGVEYAHVLLPPLETLSTVEETCVREKAVESLCRVGSQMRESDLVDHFISLVKRLAAGEWFTARVSACGVFHIAYPSAPDMLKTELRSLYTQLCQDDMPMVRRAAATNLGKFAATVESAHLKTDVMSMFEDLTQDDQDSVRLLAVEGCAALGKLLEPQDCVQHILPVIVNFSQDKSWRVRYMVANQLYELCEAVGPEPTRTELVPAYVRLLRDNEAEVRIAAAGKVTKFCRILNPEIAIQHILPCVKELSSDSSQHVRSALASVIMGMAPVLGKDATIEHLLPIFLSLLKDEFPDVRLNIISKLDQVNQVIGIDLLSQSLLPAIVELAEDRHWRVRLAIIEYIPLLASQLGVGFFDDKLGALCMQWLQDKVHSIRDAAANNLKRLAEEFGPEWAMQHIVPQVLEMVNNPHYLYRMTILRAVSLLAPVMGSEITCSKLLPVVMTASKDRVPNIKFNVAKVLQSLIPIVDQSVVEKTIRPGLVELSEDPDVDVRFFANQALQSIDNVMMSS
B6: UBIQUITIN-SPECIFIC PROTEASE UBP12 (enzyme, UniProt Q9FPT1 1-1116)
chain: MTMMTPPPVDQPEDEEMLVPNSDLVDGPAQPMEVTQPETAASTVENQPAEDPPTLKFTWTIPNFSRQNTRKHYSDVFVVGGYKWRILIFPKGNNVDHLSMYLDVSDAASLPYGWSRYAQFSLAVVNQIHTRYTVRKETQHQFNARESDWGFTSFMPLSELYDPSRGYLVNDTVLVEAEVAVRKVLDYWSYDSKKETGFVGLKNQGATCYMNSLLQTLYHIPYFRKAVYHMPTTENDAPTASIPLALQSLFYKLQYNDTSVATKELTKSFGWDTYDSFMQHDVQELNRVLCEKLEDKMKGTVVEGTIQQLFEGHHMNYIECINVDFKSTRKESFYDLQLDVKGCKDVYASFDKYVEVERLEGDNKYHAEGHGLQDAKKGVLFIDFPPVLQLQLKRFEYDFMRDTMVKINDRYEFPLELDLDREDGKYLSPDADRSVRNLYTLHSVLVHSGGVHGGHYYAFIRPTLSDQWYKFDDERVTKEDLKRALEEQYGGEEELPQTNPGFNNNPPFKFTKYSNAYMLVYIRESDKDKIICNVDEKDIAEHLRVRLKKEQEEKEDKRRYKAQAHLYTIIKVARDEDLKEQIGKDIYFDLVDHDKVRSFRIQKQTPFQQFKEEVAKEFGVPVQLQRFWIWAKRQNHTYRPNRPLTPQEELQPVGQIREASNKANTAELKLFLEVEHLDLRPIPPPEKSKEDILLFFKLYDPEKAVLSYAGRLMVKSSSKPMDITGKLNEMVGFAPDEEIELFEEIKFEPCVMCEHLDKKTSFRLCQIEDGDIICFQKPLVNKEIECLYPAVPSFLEYVQNRQLVRFRALEKPKEDEFVLELSKQHTYDDVVEKVAEKLGLDDPSKLRLTSHNCYSQQPKPQPIKYRGVDHLSDMLVHYNQTSDILYYEVLDIPLPELQGLKTLKVAFHHATKEEVVIHNIRLPKQSTVGDVINELKTKVELSHPDAELRLLEVFYHKIYKIFPSTERIENINDQYWTLRAEEIPEEEKNIGPNDRLILVYHFAKETGQNQQVQNFGEPFFLVIHEGETLEEIKNRIQKKLHVSDEDFAKWKFAFMSMGRPEYLQDTDVVYNRFQRRDVYGAFEQYLGLEHADTTPKRAYAANQNRHAYEKPVKIYN

What follows are molecules tested against T1, GS-tagged TIFY8 (TIFY8-GS) (Arabidopsis thaliana) (assay: affinity purification with mass spectrometry; tandem affinity purification of TIFY8-GS (IgG-Sepharose, then streptavidin Sepharose) from Arabidopsis PSB-D cell culture extract; MALDI-TOF/TOF (mock) and LTQ Orbitrap (mock or 1 h 50 µM JA); background proteins of control purifications subtracted).
With B1 the binding was “binds”.
B2 was tested, and the binding was “binds”.
With B3 the binding was “binds”.
For B4, the binding was “binds”.
B5 was tested, and the binding was “binds”.
In the case of B6, the binding is reported as “binds”.

Target: T1, GS-tagged TIFY8 (TIFY8-GS) (Arabidopsis thaliana)
Assay: as above
Remark: another data set of the same source
In the case of “PROTEIN PHOSPHATASE2A PP2A-3 (AT2G42500) (from UniProt Q07100 1-313) (enzyme)”, the binding is reported as “binds”.
For “PEAPOD2 (PPD2), endogenous (from UniProt Q8GY55 1-315)”, the binding was “binds”.
In the case of “Clathrin, heavy chain (AT3G08530/AT3G11130) (from UniProt Q0WNJ6)”, the binding is reported as “binds”.
With “NOVEL INTERACTOR OF JAZ (NINJA), endogenous (from UniProt Q9SV55 1-425)” the binding was “binds”.
